PubChem BioAssay AID2685 (National Center for Advancing Translational Sciences (NCATS), 2010)
This is one part of the list. Shown are side measurements of this screen, not its main read-out; they come without a call. Most of these compounds were active or inconclusive in the main read-out, so they are no random draw. The note in brackets gives the kind of curve behind each potency; many fits are weak.

Test: qHTS Assay for Lipid Storage Modulators in Drosophila S3 Cells;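 as to cell number change: cells counted by Cell Tracker Red CMTPX staining in the red channel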
Settings: BODIPY lipid droplet fluorescence, 18-24 h; for cell number change: measured here: cell count max response, cells fed with added oleic acid
In short: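 Drosophila S3 cells loaded with oleic acid (400 uM, as added) and compounds at several concentrations; lipid droplets imaged by 488-nm laser-scanning cytometry, 500–530 nm intensity and object ratio to cell channel. Percent activity normalized to 20 uM Triacsin C.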

[1] = measured here: cell number channel AC50, cells fed with added oleic acid
[2] = measured here: lipid fluorescence (Fed channel) AC50, cells fed with added oleic acid

Row | SMILES | cell number change | AC50 [1] | AC50 [2]
1 | COc1ccccc1OCC(=O)NCCS(=O)(=O)N1CCN(c2ccc(F)cc2)CC1 | -7.25% | – | –
2 | C=CCn1c(Cc2c[nH]c3ccccc23)nnc1SCC(=O)NCc1ccccc1 | -39% | 14.6 µM [falling, single point] | –
3 | O=C(Nc1ccc(-c2n[nH]c(=S)o2)cc1)c1ccccc1Br | -23.1% | – | 3.66 µM [rising, full curve, poor fit]
4 | CCC(=O)N1CCN(c2ccccc2NC(=S)NC(=O)c2ccco2)CC1 | 3% | – | 6.51 µM [rising, single point]
5 | CCOCCc1nnc(NC(=O)C2CC(=O)N(c3ccc(OCC)cc3)C2)s1 (configuration not stated) | -2.63% | – | 0.562 µM [falling, full curve, poor fit]
6 | Cc1cc(C)n(CC(C)O)c(=O)c1C#N (configuration not stated) | -48.9% | 20.6 µM [falling, single point] | 29.1 µM [falling, single point]
7 | CC(C)CN1CCN(Cc2cccc3cccnc23)CC1CCO (configuration not stated) | – | – | 0.103 µM [rising, full curve, poor fit]
8 | S=C(Nc1ccccc1)N(Cc1ccccc1)Cc1ccncc1 | 117% | – | –
9 | COc1ccc(Nc2nc(NCc3ccco3)nc(N3CCOCC3)n2)cc1 | 5.84% | – | 1.16 µM [rising, full curve]
10 | Cc1nc2c(cnn2-c2ccc(Cl)cc2)c(=O)n1-c1ccc(N2CCC(C)CC2)cc1 | -4.57% | – | 29.1 µM [falling, partial curve, poor fit]
11 | O=C1c2ccccc2S(=O)(=O)N1CCS(=O)(=O)c1ccc(F)cc1 | -37.9% | 29.1 µM [falling, single point] | –
12 | CC(=O)Nc1cccc(C(=O)OCC(=O)c2ccc(S(=O)(=O)N3CCCCC3)cc2)c1 | -29% | – | –
13 | CCOC(=O)C1CCN(C(=O)CN(C)S(=O)(=O)c2ccc3c(c2)c(=O)n(C)c(=O)n3C)CC1 | – | – | 6.51 µM [rising, single point]
14 | CC(=O)c1ccc(S(=O)(=O)N(C)CC(=O)Nc2cc(C)on2)cc1 | -13.8% | – | 3.26 µM [falling, single point]
15 | O=C(/C=C/Nc1ccccc1)C(F)(F)F | -16.2% | – | –
16 | CCC(C)NC(=O)Cc1ccc(-c2ccccc2)cc1 (configuration not stated) | 151% | 29.1 µM [rising, single point] | –
17 | O=C(Nc1cccc(Cl)c1)Nc1ccc2nccnc2c1 | -58.8% | 29.1 µM [falling, single point] | 32.6 µM [falling, single point]
18 | NS(=O)(=O)c1ccc(CCNC(=O)CNC(=O)c2ccc(Br)o2)cc1 | -4.55% | – | –
19 | Cc1oc2cc(O)ccc2c(=O)c1Oc1ccccc1Br | -14.4% | – | 29.1 µM [falling, single point]
20 | Cc1cccc2nc(CSc3ncccc3C(=O)O)cn12 | -20.8% | – | 18.4 µM [rising, single point]

Row | SMILES | cell number change | AC50 [1] | AC50 [2]
21 | O=C(CCCSc1nc2ccccc2[nH]1)N1CCN(c2ccc([N+](=O)[O-])cc2)CC1 | 31.9% | 8.2 µM [rising, partial curve] | 3.66 µM [rising, partial curve]
22 | CCc1ccc(NS(=O)(=O)c2ccc(OC)c(C)c2)cc1 | -150% | 29.1 µM [falling, single point] | –
23 | O=C(COC(=O)Cc1ccsc1)Nc1ccc(Br)cc1F | -30.2% | 2.06 µM [falling, full curve, poor fit] | 1.84 µM [falling, partial curve, poor fit]
24 | C=C(C)COc1ccc(-c2n[nH]c(C)c2-c2ccccc2)c(O)c1 | -132% | 23.1 µM [falling, partial curve] | –
25 | COCCN(C(=O)COC(=O)c1ccc(Cl)nc1)c1c(N)n(Cc2ccccc2)c(=O)[nH]c1=O | -8.43% | – | –
26 | COc1cccc(/C=C/c2nc(C#N)c(NCC(C)C)o2)c1 | -39.1% | 10.3 µM [falling, single point] | –
27 | CC(C)c1cccc(C(C)C)c1NC(=O)CN(C)C1CCS(=O)(=O)C1 (configuration not stated) | -18.1% | – | 32.6 µM [falling, partial curve]
28 | CC1CCCCC1NC(=O)COC(=O)c1ccc2c(c1)OCCO2 (configuration not stated) | -24.7% | – | 23.1 µM [falling, single point]
29 | Cc1cccc(OCC(=O)OC2CCN(C)CC2)c1 | 25.1% | – | 10.3 µM [rising, partial curve]
30 | CC1(C)COC2(OC1)C(=O)N(CN1CCOCC1)c1ccccc12 | 22.5% | – | 32.6 µM [rising, single point]
31 | S=C(c1ccc(Br)cc1)N1CCCC1 | 0.278% | – | 4.11 µM [falling, single point]
32 | Cc1ccc(C)c(NC(=O)c2cnn(-c3ccccc3)c2C)c1 | 4.11% | – | 0.58 µM [falling, single point]
33 | CCC1(c2ccccc2)NC(=O)N(CC(=O)Nc2ccc(OC)nc2)C1=O (configuration not stated) | 0.194% | – | 13 µM [rising, single point]
34 | Cc1cc(C)cc(N/C(N)=N/c2nc(C)cc(C)n2)c1 | -9.28% | – | 23.1 µM [rising, single point]
35 | Cn1cc(S(=O)(=O)N2CCCC2)cc1C(=O)Nc1cccc(C(F)(F)F)c1 | -1.89% | – | 6.51 µM [rising, single point]
36 | N#CCCN1CCN(C(=S)c2ccc(-c3ccc(Cl)cc3)o2)CC1 | -25.1% | – | –
37 | O=C(OCCNc1ncc(C(F)(F)F)cc1Cl)c1ccc(S(=O)(=O)N2CCOCC2)cc1 | -6.63% | – | 0.92 µM [falling, full curve, poor fit]
38 | Cc1ccc(-c2ccccc2NC(=O)CCl)o1 | -50.7% | 29.1 µM [falling, single point] | 0.58 µM [rising, single point]
39 | O=[N+]([O-])c1ccc(Cl)cc1Sc1nc2ccccc2o1 | -27.7% | – | 32.6 µM [falling, single point]
40 | Cc1ccc(-c2n[nH]c(=S)n2/N=C/c2cccs2)cc1 | -48.9% | 14.6 µM [falling, partial curve] | 16.4 µM [falling, single point]

Record cards, from the list above:
Cc1oc2cc(O)ccc2c(=O)c1Oc1ccccc1Br is listed as cell number change: -14.4%; AC50 [2]: 29.1 µM [falling, single point]
CC1(C)COC2(OC1)C(=O)N(CN1CCOCC1)c1ccccc12 is listed as cell number change: 22.5%; AC50 [2]: 32.6 µM [rising, single point]
Cc1nc2c(cnn2-c2ccc(Cl)cc2)c(=O)n1-c1ccc(N2CCC(C)CC2)cc1 is listed as cell number change: -4.57%; AC50 [2]: 29.1 µM [falling, partial curve, poor fit]
